Structures are written as SMILES. The structures given here were assigned with low confidence; some may be wrong.

The chains behind the UniProt entries cited, without tags or fusion partners. Residues count along the entry.
UniProt P18031, 1-321 limits assumed: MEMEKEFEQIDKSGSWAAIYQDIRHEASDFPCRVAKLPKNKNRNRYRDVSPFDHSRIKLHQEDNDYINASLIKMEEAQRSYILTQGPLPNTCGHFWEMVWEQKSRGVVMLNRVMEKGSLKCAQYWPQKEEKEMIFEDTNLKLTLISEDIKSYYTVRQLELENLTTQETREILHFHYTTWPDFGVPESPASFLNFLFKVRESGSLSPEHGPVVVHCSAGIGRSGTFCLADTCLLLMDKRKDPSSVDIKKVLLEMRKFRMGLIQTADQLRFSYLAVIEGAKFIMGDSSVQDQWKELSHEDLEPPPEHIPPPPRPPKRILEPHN

For this test, the target named is PTP-1B (Homo sapiens, UniProt P18031). The test can be described thus: pNPP assay for tyrosine phosphatase inhibitory activity. The conditions noted are these: Table 2; pNPP substrate 10 mM, 30° C., 10 minutes, absorbance at 405 nm. How it is done:
The compounds provided herein are evaluated for biological activity as inhibitors of PTP-1B using, for example, a pNPP assay. Such an assay can be used to screen compounds for tyrosine phosphatase inhibitory activity as shown in Example 39.
A 5× stock of pNPP (p-nitrophenol phosphate) substrate is prepared as 50 mM pNPP in assay buffer. […]
The compound to be tested is prepared as 1:16.7 and 1:50 dilutions from stock in a total volume of 1 00:M DMSO to give final concentrations of 626 and 200:M. The reaction mixtures are prepared in a 96-well microtiter plate (on ice) as 55:L assay buffer, 5:L of the diluted compound (to a final concentration of 31.3 and 10:M), 20:L of the pNPP substrate solution (to a final concentration of 10 mM) and 20:L PTPase in assay buffer. […] The reaction is then terminated by adding 1 OO:L of 2M K2CO3 per well, and the absorbance is measured at 405 nm by conventional means.
Unless otherwise indicated, this assay was used to determine activity for the selected compounds whose activity is recorded in Table 1 and Table 2.

The term IC50 denotes the concentration at which inhibition is half-maximal. Consider `NC(=O)CSc1ccc(-c2cnc(N(Cc3ccc(C(F)(F)P(=O)(O)O)c(Br)c3)c3ccccc3)o2)cc1`, for which the concentration for half-maximal inhibition (IC50) was under 100 nM.

The record behind these values is patent US20060135483A1, “Oxygen/nitrogen heterocycle inhibitors of tyrosine phosphatases” (priority 2004, published 2006).
